Values quoted from earlier work as cited in patent US20230312751A1, “Anti-Fibrotic Combination” (Engitix Limited, priority 2020, published 2023).
At least one compound was matched to its structure with a doubt left.

Test system: animal models
Settings: cited from earlier work

In the case of `O=C(O)c1cc(=O)c2c(OCC(O)COc3cccc4oc(C(=O)O)cc(=O)c34)cccc2o1` [cromolyn], the “biliary proliferation and fibrosis” value is given as “attenuates”.
